By UniProt entry, the sequences of proteins in these tests, tags left out.
UniProt Q96CV9: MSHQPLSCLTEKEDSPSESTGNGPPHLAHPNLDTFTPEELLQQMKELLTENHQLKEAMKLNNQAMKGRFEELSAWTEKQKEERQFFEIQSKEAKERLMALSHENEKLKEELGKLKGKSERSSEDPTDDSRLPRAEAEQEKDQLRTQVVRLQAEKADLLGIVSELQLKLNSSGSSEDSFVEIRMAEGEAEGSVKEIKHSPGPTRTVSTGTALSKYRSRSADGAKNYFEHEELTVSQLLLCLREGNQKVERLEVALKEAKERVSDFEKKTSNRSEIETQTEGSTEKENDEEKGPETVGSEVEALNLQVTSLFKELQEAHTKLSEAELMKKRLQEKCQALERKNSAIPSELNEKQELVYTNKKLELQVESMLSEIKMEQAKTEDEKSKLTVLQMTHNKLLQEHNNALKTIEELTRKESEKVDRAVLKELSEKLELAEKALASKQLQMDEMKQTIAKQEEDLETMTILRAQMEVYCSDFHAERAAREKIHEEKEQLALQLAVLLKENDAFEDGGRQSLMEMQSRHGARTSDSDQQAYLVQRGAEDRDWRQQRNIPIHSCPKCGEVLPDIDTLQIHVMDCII

According to article PMC12677614:

Target: OPTN, Flag-tagged, overexpressed (UniProt Q96CV9)
Assay: affinity purification with mass spectrometry; OPTN overexpressed in HEK293 cells, Co-IP, mass spectrometry; combined with quantitative proteomics of SL-treated LN-229 cells to pick the top ten candidates

B1: MID1 in cells (protein, UniProt O15344 1-667)
chain: METLESELTCPICLELFEDPLLLPCAHSLCFNCAHRILVSHCATNESVESITAFQCPTCRHVITLSQRGLDGLKRNVTLQNIIDRFQKASVSGPNSPSETRRERAFDANTMTSAEKVLCQFCDQDPAQDAVKTCVTCEVSYCDECLKATHPNKKPFTGHRLIEPIPDSHIRGLMCLEHEDEKVNMYCVTDDQLICALCKLVGRHRDHQVAALSERYDKLKQNLESNLTNLIKRNTELETLLAKLIQTCQHVEVNASRQEAKLTEECDLLIEIIQQRRQIIGTKIKEGKVMRLRKLAQQIANCKQCIERSASLISQAEHSLKENDHARFLQTAKNITERVSMATASSQVLIPEINLNDTFDTFALDFSREKKLLECLDYLTAPNPPTIREELCTASYDTITVHWTSDDEFSVVSYELQYTIFTGQANVVSLCNSADSWMIVPNIKQNHYTVHGLQSGTKYIFMVKAINQAGSRSSEPGKLKTNSQPFKLDPKSAHRKLKVSHDNLTVERDESSSKKSHTPERFTSQGSYGVAGNVFIDSGRHYWEVVISGSTWYAIGLAYKSAPKHEWIGKNSASWALCRCNNNWVVRHNSKEIPIEPAPHLRRVGILLDYDNGSIAFYDALNSIHLYTFDVAFAQPVCPTFTVWNKCLTIITGLPIPDHLDCTEQLP
binding: binds

These are yes or no findings as the source states them, for the method shown. In cells and extracts the contact can be indirect. A yes stands for co-enrichment or nearness to the bait. Other partners may have been found.
